Where “and” joins values, the source holds several entries; their conditions need not be identical. Identical values can stand only once. Screen size: about 300,000 compounds; about 5,400 (1.8%) were called active. The inconclusive results got no clear call from the source; some entries with a clear call stand among them for comparison. The call rests on the fitted dose curve; tested in HEK293 cells. Potencies beside an inconclusive call are fits to weak or partial responses and may not hold up.
assay: qHTS for inhibitors of binding or entry into cells for Marburg Virus; settings: Marburg virus pseudotyped entry inhibition, cell reporter; series mostly up to 37.8 µM
Potency means the concentration at half of the fitted maximal effect.

SMILES	Potency
N#CCC(=O)N/N=C/c1ccc(N2N=C(c3ccccc3)CC2c2ccccc2)cc1 (centres undefined)	inactive
Cc1ccc(S(=O)(=O)CCC(=O)OCC(=O)NC(=O)c2ccccc2)cc1	inactive
COc1ccc(CN(Cc2ccco2)C(=O)COc2ccccc2OC)cc1	inactive
O=C(c1cccc(S(=O)(=O)N2CCCC2)c1)N1CCN(c2ccccc2F)CC1	inconclusive: 20.6 µM [inhibitor, partial curve, poor fit]
O=C(N/N=C/c1ccco1)C1COc2ccccc2O1 (centres undefined)	inconclusive: 2 µM [activator, partial curve, poor fit]
COc1ccccc1-n1cc(C(=O)c2cc(Cl)ccc2O)cc(C#N)c1=O	inconclusive: 3.55 µM [activator, partial curve, poor fit]
COCCn1c(SCC(=O)Nc2ccccc2OC)nc2ccccc21	inactive
COc1ccc(NC(=O)c2c(Nc3ccccc3)sc(C(=O)c3ccc(F)cc3)c2N)cc1	active: 6.31 µM
Cc1ccc2oc(=O)n(CC(=O)OC(C)C)c2c1	inactive
Cc1ccc2c(c1)NC(=O)c1cccnc1N2	inactive
CCOc1ccc(C(=O)Oc2c(Sc3ccccc3)c(C)nn2C(C)(C)C)cc1OCC	inconclusive: 35.5 µM [inhibitor, single point]
CC(/C=C/c1ccccc1)=N\Nc1nc(C)cc(C)n1	inactive
CCOC(=O)c1cc2c(ccn2C)n1CC(=O)N(Cc1ccccc1)c1ccc(F)cc1	inconclusive: 7.31 µM [inhibitor, single point]
CCc1ccc2occ(CC(=O)Nc3ccc(OC)c(Cl)c3)c2c1	inconclusive: 7.08 µM [activator, partial curve, poor fit]
C/C(=N\NC(=O)c1cccs1)c1ccc2ccccc2c1	inconclusive: 11.2 µM [activator, partial curve]
O=C1CSCN1c1cc(Cl)ccc1Cl	inconclusive: 3.16 µM [activator, single point]
CCn1c(COc2ccccc2)nnc1SCC(=O)NC1CCCCC1	inconclusive: 1.12 µM [activator, single point]
COC(=O)Cn1nnc(-c2cccc(OC)c2)n1	inactive
O=C(CCN1CCN(C/C=C/c2ccccc2)CC1)Nc1ccccc1F	inconclusive: 35.5 µM [inhibitor, single point]
Cc1ccc(NC(=O)CN2C(=O)N/C(=C/c3ccc(C)s3)C2=O)cc1	inactive
FC(F)(F)C(Oc1nc(NC2CCCCC2)nc(N2CCOCC2)n1)C(F)(F)F	inconclusive: 29.1 µM [inhibitor, single point]
COc1ccc(Cl)cc1C(=O)Nc1nc2ccccc2[nH]1	inconclusive: 1.41 µM [inhibitor, partial curve, poor fit]

SMILES	Potency
Cc1ccc(C(=O)COC(=O)c2n[nH]c(=O)c3ccccc23)cc1	inconclusive: 6.31 µM [inhibitor, single point]
COCCC(=O)N1CCC(Oc2ccc(C(=O)N3CCCCC3CCO)cc2)CC1 (centres undefined)	inconclusive: 1.12 µM [inhibitor, single point]
O=C(NC(=S)Nc1cccc(NC(=O)c2ccccc2)c1)c1cccc([N+](=O)[O-])c1	inconclusive: 11.6 µM [inhibitor, partial curve, poor fit]
O=C(CNCCCO)Nc1cc(C(F)(F)F)cc(NC(=O)CNCCCO)c1Cl	inconclusive: 10 µM [activator, partial curve]
Cc1ccccc1C(=O)NCC(=O)NNC(=S)NC(=O)c1ccccc1	inconclusive: 35.5 µM [inhibitor, single point]
Cc1cc(C)c(NC(=O)Cn2c(=O)n(Cc3ccco3)c(=O)c3ccccc32)c(C)c1	inconclusive: 11.2 µM [inhibitor, partial curve]
COc1ccc(C)c2sc(NC(=O)CCS(=O)(=O)c3ccccc3)nc12	inconclusive: 22.4 µM [inhibitor, single point]
O=C(OCCN1CCOCC1)c1ccccc1Cl	inconclusive: 31.6 µM [activator, single point]
Cc1c(C(=O)N2CCOCC2)sc(NC(=O)Cc2ccccc2)c1C#N	inconclusive: 0.501 µM [activator, single point]
O=C1c2[nH]nc(-c3ccccc3O)c2C(c2cccc(O)c2)N1Cc1ccco1 (centres undefined)	inactive
CCCCOc1ccc(C(=O)Nc2cccc(C)n2)cc1	inconclusive: 35.5 µM [inhibitor, single point]
COc1ccc(OCCn2cc(C=O)c3ccccc32)cc1	inconclusive: 15.8 µM [inhibitor, partial curve, poor fit]
CN(Cc1ccc(Cl)s1)C(=O)CCl	inconclusive: 15.8 µM [inhibitor, partial curve, poor fit]
Cc1ccc2[nH]c(=O)c(CN(CCCN3CCOCC3)C(=O)Nc3cccc(Cl)c3)cc2c1	inactive and inconclusive: 12.6 µM [inhibitor, single point]
COc1ccc(N2CCN(C(=O)C(C)n3nc(C)c4sc5ccccc5c4c3=O)CC2)cc1 (centres undefined)	inconclusive: 1.26 µM [activator, partial curve, poor fit]
CCCN(CCO)Cc1ccc2ccccc2c1	inconclusive: 29.1 µM [inhibitor, single point]
COc1ccc(S(=O)(=O)N2CCOCC2)cc1NS(=O)(=O)/C=C/c1ccccc1	inactive
O=C(C1CCC1)N1CCN(c2ccc(Cl)cc2)CC1	inactive
O=C(c1ccc(F)cc1)C1CCN(CCn2c(=O)[nH]c3ccccc3c2=O)CC1	active: 11.2 µM
COc1ccc(CSc2nc(C)[nH]c2[N+](=O)[O-])cc1[N+](=O)[O-]	inconclusive: 3.55 µM [inhibitor, single point]
CCN(CC(=O)Nc1cc(Cl)ccc1C)C(=O)c1cc(S(=O)(=O)N2CCCCCC2)ccc1OC	inconclusive: 12.6 µM [inhibitor, partial curve]
CCOC(=O)c1c(NC(=O)C2CCN(S(=O)(=O)c3cccs3)CC2)sc(C)c1C	inactive
